In patent US20090098054:
Where cells or extracts were used, other partners may take part. For some assays here: For at least one entry, the source does not settle the construct or the ends of the probe.

Chains of the proteins cited; added tags and fusions are not shown. Chains listed by the source or under a name are the forms on record and can include a tag or linker. Residues count along the entry.
UniProt O43474, 10-513: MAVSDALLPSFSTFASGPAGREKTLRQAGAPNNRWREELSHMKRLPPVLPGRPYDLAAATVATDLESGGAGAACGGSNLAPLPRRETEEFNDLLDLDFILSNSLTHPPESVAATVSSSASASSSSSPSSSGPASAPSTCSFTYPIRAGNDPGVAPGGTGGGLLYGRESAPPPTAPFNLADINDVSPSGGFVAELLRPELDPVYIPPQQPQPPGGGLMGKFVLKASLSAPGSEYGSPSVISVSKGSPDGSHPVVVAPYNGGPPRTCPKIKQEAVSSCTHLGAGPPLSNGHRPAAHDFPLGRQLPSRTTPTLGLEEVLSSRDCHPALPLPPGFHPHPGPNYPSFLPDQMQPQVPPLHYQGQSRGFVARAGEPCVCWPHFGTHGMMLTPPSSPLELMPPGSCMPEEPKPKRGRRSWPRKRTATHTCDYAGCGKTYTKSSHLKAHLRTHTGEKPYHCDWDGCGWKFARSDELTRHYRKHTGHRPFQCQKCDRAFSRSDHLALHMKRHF
MUC1-C (MUC1 C-terminal subunit) (Homo sapiens), one chain, as listed by the source: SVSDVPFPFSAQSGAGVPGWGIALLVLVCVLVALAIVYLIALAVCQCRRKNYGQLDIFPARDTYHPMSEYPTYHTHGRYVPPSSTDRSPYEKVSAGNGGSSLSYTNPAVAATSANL

Key:
KLF4 (Homo sapiens) = KLF4 (Homo sapiens) (UniProt O43474); experiment: binding assay; conditions: ChIP and Re-ChIP after anti-MUC1-C; KLF4 occupancy decreased upon MUC1 silencing; protein in cells; protein details: endogenous, MCF-7 and ZR-75-1 cells
[1] = tested on: MUC1-C (MUC1 C-terminal subunit) (Homo sapiens); experiment: binding assay; conditions: ChIP; occupancy likely indirect via KLF4; protein in cells

## GCCCTTACTTGTCATGGCGACTGTCCAGCTTTGTGCCAGGAGCCTCGCAGGGGTTGATGGGATTG (double strand) [p53 promoter PE21 region (-118 to -54)]
KLF4 (Homo sapiens)
  binding result: binds
[1]
  binding result: binds
